Data: patent US6506737B1, “Antimicrobial phosphonium and sulfonium polyhalide compositions” (Ecolab, Inc., priority 2000, dated 2003)
Some results were stated once for a whole list of compounds, not compound by compound. For at least one compound, name, drawing or mass did not settle the structure.

System: Staphylococcus aureus (ATCC 6538)
Assay: Antimicrobial efficacy, log reduction at 12 grams per gallon in sterile deionized water (Table 3)
Format: cell-based
Details: ambient temperature
Protocol: A 4% solution of trimethyl sulfonium triiodide and a solution of 20% hexadecyl tributyl phosphonium diiodochloride were tested at a concentration of 12 grams per gallon in sterile deionized water against Staphylococcus aureus (ATCC 6538).

| Structure (SMILES) | Log Reduction (exposure time 5 minutes, listed as hexadecyl tributyl phosphonium diiodochloride) | Log Reduction (exposure time 30 seconds) |
| --- | --- | --- |
| CCCCCCCCCCCCCCCC[P+](CCCC)(CCCC)CCCC.Cl[I-]I [tributyl hexadecyl phosphonium chloro diiodide] | > 5 |  |
| C[S+](C)C.I[I-]I [trimethyl sulfonium triiodide] |  | > 5 |
